This is an account of results in PubChem BioAssay AID1347426 (Functional Genomics Laboratory (NCATS/FGL), 2020).

About 1,400 (4.5%) of roughly 31,000 sequences were called active.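 The calls were made as follows: active = median seed-adjusted z-score above 1 or below -1; inactive = the rest.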 Some of the results follow.

The test can be described thus: Novel Modifiers of Survival Motor Neuron (SMN) Protein: Gene Identification via Genome-wide siRNA Screen.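 Also: luminescence tracks full-length SMN protein made from the SMN2 reporter.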 The following applies: HEK293T SMN2-luciferase reporter, siRNA knockdown, 72 h; actives lie on both sides. In short, it runs like this:
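HEK293T cells stably expressing an SMN2 splicing/cDNA-luciferase reporter were reverse-transfected with a druggable-genome siRNA library and read by luminescence at 72 hours; hits defined by MAD score above 1.0 or below -1.0.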
A general note: Reporter assays use an easily measured gene product as a stand-in for the process of interest.
For the sequence CCCUCCAACUUAGCCCUGATT against RAB33A, the median seed-adjusted z-score is inactive: 0.307. As for GAGAAGAUGCUGAACAUCATT against UBTF, the median seed-adjusted z-score is inactive: 0.942. With GCAGAAUAACUGGAUCUAATT against RPA2, the median seed-adjusted z-score is inactive: -0.0957. Consider GGGUGAUUCUUUCAAUACUTT against SEC23A, for which the median seed-adjusted z-score was inactive: 0.131. Turning to AGCACGAAGGCAAACCCUATT against CRIP1, the median seed-adjusted z-score is inactive: -0.622. Take GGAUGUAUGCAACCCAGAATT against SLC18A1: the median seed-adjusted z-score is inactive: 0.0986. Take GCAUGAACCUGACGGUGAATT against ZIC4: the median seed-adjusted z-score is inactive: 0.512. CCAUAGGUGGUUUACCAAATT against IL1RL2: the median seed-adjusted z-score is inactive: -0.555. Turning to GAACCAAAUUGUACGAGAATT against IRX3, the median seed-adjusted z-score is inactive: -0.285. With AGCGGUUCUUGGUCCUGUATT against APBA3, the median seed-adjusted z-score was inactive: -0.119.

For CCUCAAGGAUGGAAUCCGATT against ZNF367, the median seed-adjusted z-score was inactive: -0.377. Take GCCUCUACAAGUUCAUGAATT against ARID5A: the median seed-adjusted z-score was inactive: 0.0642.

With GCCGAUGAGUUGCUGAAUATT against AP2A1, the median seed-adjusted z-score was inactive: 0.559. As for CCAACAUUCUGAGUGCCCATT against SERPINE1, the figure is inactive: 0.18; as for CAGAAAAACUUGCUACUGATT against ZNF232, inactive: 0.39; as for AUACAGACCUCAGAUCUUATT against NHLH1, inactive: -0.0084.

In the case of CGUACACCAUGAUCGGGAATT against KIF26A, the median seed-adjusted z-score was inactive: -0.428.

On to CGUCGAGUAUUUCCAACUATT against BAI3, for which the median seed-adjusted z-score was inactive: 0.0657. In the case of CUAGAGUAUUUUGAUCUAATT against FAT2, the median seed-adjusted z-score is inactive: -0.286. As for GGAUCAACGUGGUCCGGAATT against AQP6, the figure is inactive: 0.008. Regarding CCUCAAAAUCGACACCAUUTT against EPHA8, the median seed-adjusted z-score was inactive: 0.217. As to ACGAGAUCCUGACACCCAATT against MYH14, the median seed-adjusted z-score was inactive: -0.307. GCACGGUGCAGAACAACAATT against NR5A1: the median seed-adjusted z-score was inactive: -0.467. GGAACUAUAUUUGGGCUUUTT against NEUROD4: the median seed-adjusted z-score was inactive: 0.0349.

For the sequence CAAGCGCAUUUAUUAUCUUTT against PYGB, the median seed-adjusted z-score is inactive: -0.292. GCAAUGAGAUGAACACCGATT against NPEPL1: the median seed-adjusted z-score was active: 1.12.

As to GCUCAUACGUUACUCAGCATT against ZNF519, the median seed-adjusted z-score is inactive: 0.0162. For the sequence GAAUUGAUAGCUAAAGGCATT against TRIM36, the median seed-adjusted z-score was inactive: -0.262. With CGAUGACUCAGAAAAGCGATT against ARHGEF10 the figure was inactive: 0.22. Turning to GGCUAAGUAAAAAUGAGUATT against PCDHA11, the median seed-adjusted z-score is inactive: 0.582.

On to CCAUGAUUAGAUUUCGGUATT against SENP5, for which the median seed-adjusted z-score is inactive: 0.215. For GGAUCGAUUCUGAAUAUGATT against PAPSS1, the median seed-adjusted z-score was inactive: -0.648. For GCGUGACGAUCAUGGACUATT against APOBEC3B, the median seed-adjusted z-score was inactive: 0. In the case of GCACAAGACUGAAUAACGATT against FAM3B, the median seed-adjusted z-score is inactive: -0.327.

Turning to CUGUAGAUACUGUAUCAAATT against DVL1, the median seed-adjusted z-score is inactive: -0.814. Take CAAGCAUGCAUGUAGGGAATT against TLK2: the median seed-adjusted z-score is inactive: 0.347.

Turning to GGAACGAUGUCACUCAGCATT against PLK4, the median seed-adjusted z-score is inactive: -0.0888. As to GGACUAAUGAUGGAGACUATT against SCARB2, the median seed-adjusted z-score was inactive: -0.244. In the case of UUCUCAUCCUGAUCUGUUUTT against CD1E, the median seed-adjusted z-score is inactive: -0.133. For CAAUUGUCUUACUCAUCAATT against NCOA4, the median seed-adjusted z-score was inactive: -0.0638. In the case of CAUCUUCAGUCUGUACAAATT against KIR2DL5B, the median seed-adjusted z-score was active: 1.72. As to CCUGAGUGAUACUAAAGAATT against GALR1, the median seed-adjusted z-score is inactive: -0.721. Regarding GCACUGCUUUGAAUGCUAUTT against TTLL1, the median seed-adjusted z-score was inactive: 0.322. Turning to GUAUGUCAAGGAGAACGGATT against CTSL2, the median seed-adjusted z-score is active: -1.04. With CCUACAGCAGUGUCUAUGATT against EIF3C the figure was inactive: 0.56; with CCACGACCAGCUUAAAGAATT against OAZ3, inactive: 0.046.

Take CGUCAGCUAUGUAAUGUUUTT against SLC22A7: the median seed-adjusted z-score is inactive: -0.387. For CGACGAACAUUUGAAGAUATT against GSS, the median seed-adjusted z-score is inactive: 0.122. With GCGGAUUCCUCUGUCCCAATT against SPINT2, the median seed-adjusted z-score is inactive: 0.00974. For CACCAGGUCUGGAUAUUGATT against SF3A1, the median seed-adjusted z-score was active: -1.09. As for GAACUACGGGAAGUAUGAATT against TTL, the figure is inactive: -0.174; as for CAGUGACUGUCGGUACAUATT against TYRO3, inactive: -0.0161.

For AGACCUUUGUGGAUGCAGATT against CTSE, the median seed-adjusted z-score was inactive: -0.1. With GACACUUUACCAAAUCCUATT against OSR2 the figure was inactive: 0.603.

On to CAUCCACAACGGCGAGAAGTT against GLI4, for which the median seed-adjusted z-score is inactive: 0.0798. With CCGACUACUCCAACGAGAATT against MASP2 the figure was inactive: -0.137. In the case of CCCAUUAACCUCCUCCCAATT against SPI1, the median seed-adjusted z-score was inactive: 0.384. ACAUAGACUUUGUACUACATT against ABHD1: the median seed-adjusted z-score is inactive: 0.336.

On to GCUUGAAAGGGACGAGUUATT against SLC4A1AP, for which the median seed-adjusted z-score is inactive: -0.0117. With GCUACACCUCAGUUCAUCATT against CLOCK the figure was inactive: -0.338. As for CGACAAGAAUACAACGAUATT against KEL, the median seed-adjusted z-score was inactive: 0.

For UCAAGAAAAUGAACCGAGATT against HOXC10, the median seed-adjusted z-score was inactive: 0.000966. As for CAGCGAUUUUAAAUCGUAUTT against HSD17B13, the median seed-adjusted z-score was inactive: -0.329. On to GGCUCAACUUUAACACCGATT against RBM3, for which the median seed-adjusted z-score is inactive: 0.0539.

As to GCCUCACCUUUGUAGUAUUTT against ZBTB41, the median seed-adjusted z-score was inactive: 0.173. As for GGAUCGUGGUCUUUCCAAATT against FNTA, the figure is active: 1.04.

Take GCUAAUGGAUCAGAACGUATT against NEIL3: the median seed-adjusted z-score was inactive: 0.0736. As to GAUGAACUGAAGCUAUUGATT against S100G, the median seed-adjusted z-score is inactive: -0.809.
